Test results from publication doi:10.1101/2025.01.21.633742.
These are yes or no findings as the source states them, for the method shown. Binding seen in cells or lysates may run through a third protein. Some entries that bind do so weakly or less than the wild type.

Biological target: hexahistidine-tagged PSII core antenna protein CP43 (Synechococcus elongatus PCC 7942) (UniProt P11004)
Test: pull-down + cross-linking

Q: Which binding does the source give for “PSII reaction center D2 protein (from UniProt P11005 1-352)” here?
A: binds
